Results as given in the supplement of paper PMC8256030.
Where “and” joins values, the source holds several entries; their conditions need not be identical. Identical values can stand only once. Some of the results follow. This data set is noisy: repeats of one test often differ as much as different tests do.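 HEK293T cells were given each compound shortly before transfection with a reporter in which red mCherry is followed by the SARS-CoV-2 frameshift element and then GFP in the −1 frame, so GFP appears only after frameshifting.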

tested on: SARS-CoV-2 -1 PRF reporter mCherry-FSE-GFP(-1); assay: percent effect, decrease of GFP/mCherry ratio (-1 PRF reporter) relative to controls; higher = stronger frameshift inhibition; settings: 10 µM; 24 h; HEK293T

| Compound | percent effect |
| --- | --- |
| C/C(=C\C(=O)O)C1CCCCC1 [cicrotoic acid] | -2.92% |
| N#CC(c1ccc(Cl)cc1)c1ccc(-n2ncc(=O)[nH]c2=O)cc1Cl (stereo not drawn) [clazuril] | 0.981% |
| C[C@H](N)C(=O)N[C@@H](C)P(=O)(O)O [alafosfalin] | -2.35% |
| O=C(Nc1ccccc1)OCC(CN1CCCCC1)OC(=O)Nc1ccccc1 (stereo not drawn) | -3.22% |
| CCCC(CCC)C(N)=O [valpromide] | -5.6% |
| CCNCc1c(CSC)cnc(C)c1O [tamitinol] | 3.9% |
| CN1CCN(C2=Nc3cc(Cl)ccc3Nc3ccccc32)CC1 [clozapine] | 2.33% |
| CC(=O)Nc1ccccc1 | -11.6% |
| O=S(=O)(O)c1cc(I)c(O)c2ncccc12 [chiniofon] | -3.15% |
| CC1(C)Oc2ccc(C#N)cc2[C@H](N2CCCC2=O)[C@H]1O [cromakalim] | -3.61% |
| COc1ccc(C(=O)CCC(=O)O)c2ccccc12 [menbutone] | -0.514% |
| CC(C)[C@H](N)C(=O)O [valine] | -0.513% |
| Cc1oc2nc3c(c(NC(=O)CN4CCCC4=O)c2c1C)CCCC3 [coluracetam] | -2.65% |
| CCOC(=O)C1=C[C@@H](OC(CC)CC)[C@H](NC(C)=O)[C@@H](N)C1 | -1.95% |
| O=C[C@H](O)[C@H]1OC(=O)[C@@H](O)[C@H]1O [glucurolactone] | -4.96% |
| CSCC[C@H](N)C(=O)O [methionine] | -3.88% |
| O=C1[C@H](CC[C@H](O)c2ccc(F)cc2)[C@@H](c2ccc(O)cc2)N1c1ccc(F)cc1 [ezetimibe] | 0.24% |
| CC1Cc2ccccc2N1NC(=O)c1ccc(Cl)c(S(N)(=O)=O)c1 (stereo not drawn) [indapamide] | -1.93% and -12.9% |
